Results reported in patent publication US20090075974A1, “AGENT FOR PROPHYLAXIS AND TREATMENT OF PANCREATITIS” (UMN Pharma Inc., priority 2005, published 2009).

Tested on: mouse with cerulein-induced pancreatitis
Assay: Cerulein-induced acute pancreatitis in mouse: amylase and lipase activity in plasma
Format: in vivo
Details: for inhibition rate of amylase: Example 3, FIG. 3, drug 3.2 mg/kg
Protocol: Receptor subtypes involved in the onset of pancreatitis were examined with the use of antagonists of 5-HT2A receptor, 5-HT2B receptor, and 5-HT2C receptor. A mouse having acute pancreatitis induced by excessive administration of cerulein was used as an animal model. This model is not affected by food consumption, which is different from CDE pancreatitis, and thus it is possible to obtain constant pathologic features and analyze data more accurately.
An aqueous solution of cerulein (0.05 mg/Kg) was administered to a five-week-old mouse every one hour five times by hypodermic injection. Each 5-HT2 antagonist suspended in a solvent (0.5% methylcellulose in saline) was administered under the dorsal skin 15 minutes before the first administration of cerulein. […] Further, only the solvent was administered to the control group (group administered with cerulein alone) under the dorsal skin. One hour after the final administration, blood was collected, and amylase activity and lipase activity in the plasma were determined.
Effects of various 5-HT2A antagonists on amylase activity and lipase activity in plasma of cerulein-induced pancreatic mice were examined. […] Then the amylase activity and the lipase activity in plasma were determined.
Effects of various 5-HT2 antagonists on amylase activity and lipase activity in plasma of cerulein-induced pancreatic mice were examined. […] Then the amylase activity and the lipase activity in plasma were determined.

Compound	inhibition rate of amylase	inhibition rate of amylase activity (Example 2, FIG. 2, drug 3.2 mg/Kg) [%]
CC[C@@H](CO)NC(=O)[C@@H]1C=C2c3cccc4c3c(cn4C)C[C@H]2N(C)C1 [Methysergide, methysergide]	no inhibition	–
O=C(CCCN1CCC2(CC1)C(=O)NCN2c1ccccc1)c1ccc(F)cc1 [spiperone]	15%	41
